Results on 3 molecules are retold here after PMC5322733.

Test [1] has as its target T1, BB-GFP (Arabidopsis thaliana) (UniProt Q8L649).
T1 sequence: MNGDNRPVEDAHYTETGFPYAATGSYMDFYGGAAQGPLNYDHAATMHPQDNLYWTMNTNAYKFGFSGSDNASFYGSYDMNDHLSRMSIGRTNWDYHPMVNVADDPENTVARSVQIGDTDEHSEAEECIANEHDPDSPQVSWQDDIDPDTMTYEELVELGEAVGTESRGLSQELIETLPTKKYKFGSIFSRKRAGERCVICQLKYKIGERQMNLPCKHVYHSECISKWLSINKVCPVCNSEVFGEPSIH
The experiment in a line: co-IP; BB-GFP or GFP coexpressed with Myc-DA1 in N. benthamiana leaves (Agrobacterium-mediated transient expression); purified using GFP trap and immunoblotted. (A western blot detects proteins with antibodies after separation by electrophoresis.)

In test [2] the target is T2, GST-tagged DA1 (Arabidopsis thaliana) (UniProt P0C7Q8).
T2 sequence: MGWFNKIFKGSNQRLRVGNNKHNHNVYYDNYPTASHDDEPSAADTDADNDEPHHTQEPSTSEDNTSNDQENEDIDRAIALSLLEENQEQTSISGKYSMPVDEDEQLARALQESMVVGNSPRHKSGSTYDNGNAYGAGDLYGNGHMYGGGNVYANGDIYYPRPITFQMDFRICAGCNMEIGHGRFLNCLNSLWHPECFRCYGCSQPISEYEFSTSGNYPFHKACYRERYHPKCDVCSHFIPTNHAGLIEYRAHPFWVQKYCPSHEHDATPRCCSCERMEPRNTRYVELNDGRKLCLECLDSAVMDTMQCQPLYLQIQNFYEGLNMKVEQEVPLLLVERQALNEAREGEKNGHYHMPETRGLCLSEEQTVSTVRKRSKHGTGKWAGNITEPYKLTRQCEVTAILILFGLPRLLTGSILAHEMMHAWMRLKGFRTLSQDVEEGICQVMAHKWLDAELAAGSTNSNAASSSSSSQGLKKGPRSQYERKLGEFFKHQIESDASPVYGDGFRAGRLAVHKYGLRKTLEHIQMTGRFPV
Put plainly: pull-down; in vitro; GST-DA1 with HIS-BB or HIS-BBR; GST-GUS as negative control.

Results are given in words; binding and its absence hold for the method and conditions named. In cells and extracts the contact can be indirect. Some results given as binding are weak or reduced against the parent protein; the word gives no strength. Tags and fused reporters may be left off the sequences shown.

B1: Myc-tagged DA1 (enzyme, UniProt P0C7Q8 1-532)
chain: MGWFNKIFKGSNQRLRVGNNKHNHNVYYDNYPTASHDDEPSAADTDADNDEPHHTQEPSTSEDNTSNDQENEDIDRAIALSLLEENQEQTSISGKYSMPVDEDEQLARALQESMVVGNSPRHKSGSTYDNGNAYGAGDLYGNGHMYGGGNVYANGDIYYPRPITFQMDFRICAGCNMEIGHGRFLNCLNSLWHPECFRCYGCSQPISEYEFSTSGNYPFHKACYRERYHPKCDVCSHFIPTNHAGLIEYRAHPFWVQKYCPSHEHDATPRCCSCERMEPRNTRYVELNDGRKLCLECLDSAVMDTMQCQPLYLQIQNFYEGLNMKVEQEVPLLLVERQALNEAREGEKNGHYHMPETRGLCLSEEQTVSTVRKRSKHGTGKWAGNITEPYKLTRQCEVTAILILFGLPRLLTGSILAHEMMHAWMRLKGFRTLSQDVEEGICQVMAHKWLDAELAAGSTNSNAASSSSSSQGLKKGPRSQYERKLGEFFKHQIESDASPVYGDGFRAGRLAVHKYGLRKTLEHIQMTGRFPV
As for B1, the binding entry in test [1] is “binds”.

B2: HIS-tagged Big Brother (BB) (enzyme, UniProt Q8L649 1-248)
chain: MNGDNRPVEDAHYTETGFPYAATGSYMDFYGGAAQGPLNYDHAATMHPQDNLYWTMNTNAYKFGFSGSDNASFYGSYDMNDHLSRMSIGRTNWDYHPMVNVADDPENTVARSVQIGDTDEHSEAEECIANEHDPDSPQVSWQDDIDPDTMTYEELVELGEAVGTESRGLSQELIETLPTKKYKFGSIFSRKRAGERCVICQLKYKIGERQMNLPCKHVYHSECISKWLSINKVCPVCNSEVFGEPSIH
For the molecule B2, the binding entry in test [2] is on record as “binds”.

B3: HIS-tagged BBR (BB-related) (enzyme, UniProt Q9LT17 1-340)
chain: MPMENDNGPHVGNVVVTAEQATKINETDGRLPENRQTGVVSDTGSGSERGEQGVGESAVAVAVPVEESGSISVGELPAPRSSSARVPFTNLSQIDADLALARTLQEQERAYMMLTMNSEISDYGSWETGSYVYDEDEFDDPENEDEDDDEDEYETDDDPQEDGLDVNVHANEDDQEDDGNSDIEEVAYTDDEAYARALQEAEERDMAARLSALSGLANRVVEDLEDESHTSQDAWDEMDPDELSYEELLALGDIVGTESRGLSADTIASLPSKRYKEGDNQNGTNESCVICRLDYEDDEDLILLPCKHSYHSECINNWLKINKVCPVCSAEVSTSTSGQS
For the molecule B3, the binding entry in test [2] is given as “no binding”.
